Laboratory results published in the supplement of paper PMC8728848.
The list shows a part of the results.

Columns and labels:
Assay in all cases: glycan array binding signal (z-score within array); higher = stronger binding
Settings in all cases: glycan notation: IUPAC condensed, linker removed
[1] = biological target: Gal(b1-3)GlcNAc(b1-2)Man(a1-3)[Gal(b1-3)GlcNAc(b1-2)Man(a1-6)]Man(b1-4)GlcNAc(b1-4)[Fuc(a1-6)]GlcNAc
Outline: (§1)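 The binding signal is a Z-score computed within each array. Data were drawn from 3228 arrays in the Consortium for Functional Glycomics database, restricted to those with a known protein sequence. Scores were averaged over arrays of the same protein sequence at different concentrations or buffers, and over linkers, and negative values can be taken as non-binding.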

[2] = biological target: Gal(b1-3)GlcNAc(b1-2)Man(a1-3)[GlcNAc(b1-4)][Gal(b1-3)GlcNAc(b1-2)Man(a1-6)]Man(b1-4)GlcNAc(b1-4)GlcNAc
Outline: as §1

[3] = biological target: Gal(b1-3)GlcNAc(b1-2)[Gal(b1-3)GlcNAc(b1-6)]Man(a1-6)[Gal(b1-3)GlcNAc(b1-2)Man(a1-3)]Man(b1-4)GlcNAc(b1-4)GlcNAc
Outline: as §1

[4] = biological target: Gal(b1-3)GlcNAc(b1-3)Gal(b1-3)GlcNAc
Outline: as §1

[5] = biological target: Gal(b1-3)GlcNAc(b1-3)Gal(b1-4)Glc
Outline: as §1

[6] = biological target: Gal(b1-3)GlcNAc(b1-3)Gal(b1-4)GlcNAc
Outline: as §1

[7] = biological target: Gal(b1-3)GlcNAc(b1-3)Gal(b1-4)GlcNAc(b1-2)Man(a1-3)[Gal(b1-3)GlcNAc(b1-3)Gal(b1-4)GlcNAc(b1-2)Man(a1-6)]Man(b1-4)GlcNAc(b1-4)GlcNAc
Outline: as §1

[8] = biological target: Gal(b1-3)GlcNAc(b1-3)Gal(b1-4)GlcNAc(b1-2)[Gal(b1-3)GlcNAc(b1-3)Gal(b1-4)GlcNAc(b1-6)]Man(a1-6)[Gal(b1-3)GlcNAc(b1-3)Gal(b1-4)GlcNAc(b1-2)Man(a1-3)]Man(b1-4)GlcNAc(b1-4)[Fuc(a1-6)]GlcNAc
Outline: as §1

[9] = biological target: Gal(b1-3)GlcNAc(b1-3)Gal(b1-4)GlcNAc(b1-3)Gal(b1-4)GlcNAc(b1-2)[Gal(b1-3)GlcNAc(b1-3)Gal(b1-4)GlcNAc(b1-3)Gal(b1-4)GlcNAc(b1-6)]Man(a1-6)[Gal(b1-3)GlcNAc(b1-3)Gal(b1-4)GlcNAc(b1-3)Gal(b1-4)GlcNAc(b1-2)Man(a1-3)]Man(b1-4)GlcNAc(b1-4)[Fuc(a1-6)]GlcNAc
Outline: as §1

[10] = biological target: Gal(b1-3)GlcNAc(b1-3)Gal(b1-4)GlcNAc(b1-6)[Gal(b1-3)GlcNAc(b1-3)]Gal(b1-4)Glc
Outline: as §1

[11] = biological target: Gal(b1-3)GlcNAc(b1-3)Gal(b1-4)[Fuc(a1-3)]GlcNAc
Outline: as §1

[12] = biological target: Gal(b1-3)GlcNAc(b1-3)Gal(b1-4)[Fuc(a1-3)]GlcNAc(b1-6)[Gal(b1-3)GlcNAc(b1-3)]Gal(b1-4)Glc
Outline: as §1

[13] = biological target: Gal(b1-3)GlcNAc(b1-3)GalNAc
Outline: as §1

[14] = biological target: Gal(b1-3)GlcNAc(b1-6)Gal(b1-4)GlcNAc
Outline: as §1

[15] = biological target: Gal(b1-3)GlcNAc(b1-6)GalNAc
Outline: as §1

[16] = biological target: Gal(b1-3)GlcNAc(b1-6)[Gal(b1-3)]GalNAc
Outline: as §1

Gal(b1-3)GlcNAc6S = biological target: Gal(b1-3)GlcNAc6S
Outline: as §1

[17] = biological target: Gal(b1-3)[Fuc(a1-4)]GlcNAc
Outline: as §1

[18] = biological target: Gal(b1-3)[Fuc(a1-4)]GlcNAc(b1-2)Man
Outline: as §1

[19] = biological target: Gal(b1-3)[Fuc(a1-4)]GlcNAc(b1-2)Man(a1-3)[Gal(b1-3)[Fuc(a1-4)]GlcNAc(b1-2)Man(a1-6)]Man(b1-4)GlcNAc(b1-4)[Fuc(a1-6)]GlcNAc
Outline: as §1

[20] = biological target: Gal(b1-3)[Fuc(a1-4)]GlcNAc(b1-3)Gal(b1-3)[Fuc(a1-4)]GlcNAc
Outline: as §1

[21] = biological target: Gal(b1-3)[Fuc(a1-4)]GlcNAc(b1-3)Gal(b1-4)[Fuc(a1-3)]GlcNAc
Outline: as §1

[22] = biological target: Gal(b1-3)[Fuc(a1-4)]GlcNAc(b1-6)GalNAc
Outline: as §1

[23] = biological target: Gal(b1-3)[GlcNAc(b1-6)]GalNAc
Outline: as §1

[24] = biological target: Gal(b1-3)[Neu5Ac(a2-6)]GalNAc
Outline: as §1

[25] = biological target: Gal(b1-3)[Neu5Ac(a2-6)]GlcNAc(b1-4)Gal(b1-4)Glc
Outline: as §1

[26] = biological target: Gal(b1-3)[Neu5Ac(b2-6)]GalNAc
Outline: as §1

Gal(b1-4)Gal = biological target: Gal(b1-4)Gal
Outline: as §1

[27] = biological target: Gal(b1-4)GalNAc(a1-3)[Fuc(a1-2)]Gal(b1-4)GlcNAc
Outline: as §1

[28] = biological target: Gal(b1-4)GalNAc(b1-3)[Fuc(a1-2)]Gal(b1-4)GlcNAc
Outline: as §1

Gal(b1-4)Glc = biological target: Gal(b1-4)Glc
Outline: as §1

Gal(b1-4)Glc6S = biological target: Gal(b1-4)Glc6S
Outline: as §1

Gal(b1-4)GlcNAc = biological target: Gal(b1-4)GlcNAc
Outline: as §1

[29] = biological target: Gal(b1-4)GlcNAc(a1-6)Gal(b1-4)GlcNAc
Outline: as §1

Gal(b1-4)GlcNAc(b1-2)Man = biological target: Gal(b1-4)GlcNAc(b1-2)Man
Outline: as §1

[30] = biological target: Gal(b1-4)GlcNAc(b1-2)Man(a1-3)Man(b1-4)GlcNAc(b1-4)GlcNAc
Outline: as §1

[31] = biological target: Gal(b1-4)GlcNAc(b1-2)Man(a1-3)[Gal(b1-4)GlcNAc(b1-2)Man(a1-6)]Man(b1-4)GlcNAc(b1-4)GlcNAc
Outline: as §1

[32] = biological target: Gal(b1-4)GlcNAc(b1-2)Man(a1-3)[Gal(b1-4)GlcNAc(b1-2)Man(a1-6)]Man(b1-4)GlcNAc(b1-4)[Fuc(a1-6)]GlcNAc
Outline: as §1

[33] = biological target: Gal(b1-4)GlcNAc(b1-2)Man(a1-3)[Gal(b1-4)GlcNAc(b1-2)Man(a1-6)][Gal(b1-4)GlcNAc(b1-4)]Man(b1-4)GlcNAc(b1-4)[Fuc(a1-6)]GlcNAc
Outline: as §1

[34] = biological target: Gal(b1-4)GlcNAc(b1-2)Man(a1-3)[Gal(b1-4)GlcNAc(b1-2)Man(a1-6)][GlcNAc(b1-4)]Man(b1-4)GlcNAc(b1-4)[Fuc(a1-6)]GlcNAc
Outline: as §1

[35] = biological target: Gal(b1-4)GlcNAc(b1-2)Man(a1-3)[GlcNAc(b1-2)Man(a1-6)]Man(b1-4)GlcNAc(b1-4)GlcNAc
Outline: as §1

[36] = biological target: Gal(b1-4)GlcNAc(b1-2)Man(a1-3)[GlcNAc(b1-4)][Gal(b1-4)GlcNAc(b1-2)Man(a1-6)]Man(b1-4)GlcNAc(b1-4)GlcNAc
Outline: as §1

[37] = biological target: Gal(b1-4)GlcNAc(b1-2)Man(a1-3)[Man(a1-6)]Man(b1-4)GlcNAc(b1-4)GlcNAc
Outline: as §1

[38] = biological target: Gal(b1-4)GlcNAc(b1-2)Man(a1-6)Man(b1-4)GlcNAc(b1-4)GlcNAc
Outline: as §1

[39] = biological target: Gal(b1-4)GlcNAc(b1-2)Man(a1-6)[GlcNAc(b1-2)Man(a1-3)]Man(b1-4)GlcNAc(b1-4)GlcNAc
Outline: as §1

B1: Loc1 (Escherichia coli) (protein)
chain: APCALTNVGEQRGTYILKPLSMKGNLTAEKIENTGNIIECTDLQETTNAIKVHFLTQNALKFKVGSRHYIINFPFEYDGKKIELPGKSSYNLEEMLSAINFTIPYSIASVSDSSNTADIFPGTPFPLLFEIEVSSCTGNNTNCNSVRFNYNLNTILQVNLMTHHHHHH
glycan array binding signal (z-score) [1]: 0.25
glycan array binding signal (z-score) [2]: 1.66
glycan array binding signal (z-score) [3]: -0.619
glycan array binding signal (z-score) [4]: -0.705
glycan array binding signal (z-score) [5]: -1.03
glycan array binding signal (z-score) [6]: 0.088
glycan array binding signal (z-score) [7]: -1.15
glycan array binding signal (z-score) [8]: 1.36
glycan array binding signal (z-score) [9]: -0.715
glycan array binding signal (z-score) [10]: -0.418
glycan array binding signal (z-score) [11]: -0.579
glycan array binding signal (z-score) [12]: -0.657
glycan array binding signal (z-score) [13]: -0.239
glycan array binding signal (z-score) [14]: 0.216
glycan array binding signal (z-score) [15]: -0.335
glycan array binding signal (z-score) [16]: -0.825
glycan array binding signal (z-score) (Gal(b1-3)GlcNAc6S): -0.688
glycan array binding signal (z-score) [17]: -0.549
glycan array binding signal (z-score) [18]: -0.686
glycan array binding signal (z-score) [19]: 0.447
glycan array binding signal (z-score) [20]: -0.396
glycan array binding signal (z-score) [21]: 0.749
glycan array binding signal (z-score) [22]: -0.328
glycan array binding signal (z-score) [23]: -0.425
glycan array binding signal (z-score) [24]: 0.066
glycan array binding signal (z-score) [25]: -0.233
glycan array binding signal (z-score) [26]: -0.419
glycan array binding signal (z-score) (Gal(b1-4)Gal): 1.58
glycan array binding signal (z-score) [27]: -0.103
glycan array binding signal (z-score) [28]: -0.549
glycan array binding signal (z-score) (Gal(b1-4)Glc): -0.186
glycan array binding signal (z-score) (Gal(b1-4)Glc6S): 0.386
glycan array binding signal (z-score) (Gal(b1-4)GlcNAc): -0.092
glycan array binding signal (z-score) [29]: -0.134
glycan array binding signal (z-score) (Gal(b1-4)GlcNAc(b1-2)Man): -0.527
glycan array binding signal (z-score) [30]: 0.511
glycan array binding signal (z-score) [31]: 0.274
glycan array binding signal (z-score) [32]: 1.18
glycan array binding signal (z-score) [33]: -0.599
glycan array binding signal (z-score) [34]: -0.461
glycan array binding signal (z-score) [35]: -0.279
glycan array binding signal (z-score) [36]: 0.088
glycan array binding signal (z-score) [37]: -0.747
glycan array binding signal (z-score) [38]: -0.983
glycan array binding signal (z-score) [39]: 1.05
